According to patent US20130183348A1, “Inhibitor of HMGB Protein-Mediated Immune Response Activation, and Screening Method” (JAPAN SCIENCE AND TECHNOLOGY AGENCY, published 2013):

Biological target: T1, HMGB1 (Mus musculus) (UniProt P63158)
T1 sequence (limits assumed): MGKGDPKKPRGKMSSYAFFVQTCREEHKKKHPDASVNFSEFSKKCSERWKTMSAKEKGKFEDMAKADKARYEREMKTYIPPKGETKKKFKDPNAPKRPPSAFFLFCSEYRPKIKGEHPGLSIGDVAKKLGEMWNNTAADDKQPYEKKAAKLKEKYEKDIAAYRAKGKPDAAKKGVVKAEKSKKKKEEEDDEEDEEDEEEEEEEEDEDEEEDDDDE
Experiment: competition with a labelled probe
Conditions: weaker than CpG-M(S) against biotin-CpG-B(S), 0-32 uM; purified recombinant protein; single-stranded DNA; variant of CpG-M(S)

TCCATGAGGTTCCTGATGCT [ODN(CpG-M) phosphodiester]
binding result: binds more weakly

A weaker result is weaker than the reference pair of the same experiment. Protein sequences can lack the tags named with them.
